Laboratory results: PubChem BioAssay AID1259308 (NCATS, 2017)
The whole screen tested about 59,000 reagents; this is an unselected part. Over the whole deposit, about 1,510 (2.6%) are marked active. 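Calls use total luciferase alone and ignore viability, so some active siRNAs may act by altering cell number.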 The numbers tell different reagents against one gene apart. Further read-outs or replicates are left out here. Reagent sequences are not shown.

Screen: 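Genes whose loss raises luciferase production in HEK293 cells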 (primary screen)
System: human HEK293 embryonic kidney cells stably expressing firefly luciferase (HEK-CMV-Luc2-Hygro)
Reagent: single siRNA against human genes, 0.8 pmol siRNA per well
Timing: 72 h
Detection: 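Luciferase light (ONE-Glo) measured on one replicate plate set and viability (CellTiter-Glo) on the other, scaled to a negative control siRNA, with robust z-scores and luciferase per cell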
Scale: total luciferase, z-score and total luciferase, % of control: higher = more reporter protein produced
Hit rule: 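An siRNA counts as active if its total luciferase robust z-score exceeds 3; genes with two or more such siRNAs out of three were retested with fresh siRNAs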
Calls: active = raised luciferase; inactive = no rise

target	reagent	total luciferase, z-score	total luciferase, % of control	Call
PILRA (paired immunoglobin like type 2 receptor alpha)	1	0.736	96.5	inactive
PILRA (paired immunoglobin like type 2 receptor alpha)	2	-0.381	74.3	inactive
PILRA (paired immunoglobin like type 2 receptor alpha)	3	0.524	92.3	inactive
CLDN16 (claudin 16)	1	0.521	92.2	inactive
CLDN16 (claudin 16)	2	0.842	98.6	inactive
CLDN16 (claudin 16)	3	4.95	180	active
IRF2 (interferon regulatory factor 2)	1	-0.975	62.5	inactive
IRF2 (interferon regulatory factor 2)	2	-0.617	69.6	inactive
IRF2 (interferon regulatory factor 2)	3	0.773	97.3	inactive
MINDY2 (MINDY lysine 48 deubiquitinase 2)	1	-2.4	34.2	inactive
MINDY2 (MINDY lysine 48 deubiquitinase 2)	2	-1.35	55.1	inactive
MINDY2 (MINDY lysine 48 deubiquitinase 2)	3	0.234	86.5	inactive
PODXL (podocalyxin like)	1	-1.5	52	inactive
PODXL (podocalyxin like)	2	0.356	89	inactive
PODXL (podocalyxin like)	3	0.0549	83	inactive
CFAP210 (cilia and flagella associated protein 210)	1	0.282	87.5	inactive
CFAP210 (cilia and flagella associated protein 210)	2	0.046	82.8	inactive
CFAP210 (cilia and flagella associated protein 210)	3	0.178	85.4	inactive

Records above marked active (1):
target	reagent	total luciferase, z-score	total luciferase, % of control	Call
CLDN16 (claudin 16)	3	4.95	180	active

The list goes on:
target	reagent	total luciferase, z-score	total luciferase, % of control	Call
LINC02145 (long independently transcribed non-coding RNA 2145)	1	0.141	84.7	inactive
LINC02145 (long independently transcribed non-coding RNA 2145)	2	0.116	84.2	inactive
LINC02145 (long independently transcribed non-coding RNA 2145)	3	-0.0385	81.1	inactive
LINC01120 (long independently transcribed non-coding RNA 1120)	1	-2.61	29.9	inactive
LINC01120 (long independently transcribed non-coding RNA 1120)	2	0.401	89.9	inactive
LINC01120 (long independently transcribed non-coding RNA 1120)	3	1.05	103	inactive
FAM238C (family with sequence similarity 238 member C)	1	1.66	115	inactive
FAM238C (family with sequence similarity 238 member C)	2	-0.0541	80.8	inactive
FAM238C (family with sequence similarity 238 member C)	3	-0.152	78.9	inactive
CEMIP2 (cell migration inducing hyaluronidase 2)	1	-1.21	57.9	inactive
CEMIP2 (cell migration inducing hyaluronidase 2)	2	0.132	84.5	inactive
CEMIP2 (cell migration inducing hyaluronidase 2)	3	-1.11	59.8	inactive
FAM174B (family with sequence similarity 174 member B)	1	1.33	108	inactive
FAM174B (family with sequence similarity 174 member B)	2	-0.768	66.6	inactive
FAM174B (family with sequence similarity 174 member B)	3	0.16	85.1	inactive
EARS2 (glutamyl-tRNA synthetase 2, mitochondrial)	1	0.695	95.7	inactive
EARS2 (glutamyl-tRNA synthetase 2, mitochondrial)	2	-0.299	75.9	inactive
EARS2 (glutamyl-tRNA synthetase 2, mitochondrial)	3	0.639	94.6	inactive
EFTUD2 (elongation factor Tu GTP binding domain containing 2)	1	0.337	88.6	inactive
EFTUD2 (elongation factor Tu GTP binding domain containing 2)	2	0.905	99.9	inactive
EFTUD2 (elongation factor Tu GTP binding domain containing 2)	3	-1.79	46.3	inactive
